Reference: the supplement of paper PMC12067093, “Discovery and optimisation of a covalent ligand for TRIM25 and its application to targeted protein ubiquitination” (Chemical Science, 2025)
This is one part of the list.

By UniProt entry, the sequences of proteins in these tests, tags left out. Where a name states a change or a piece, a line headed by the entry shows the natural chain unless it says otherwise.
UniProt Q6IA86: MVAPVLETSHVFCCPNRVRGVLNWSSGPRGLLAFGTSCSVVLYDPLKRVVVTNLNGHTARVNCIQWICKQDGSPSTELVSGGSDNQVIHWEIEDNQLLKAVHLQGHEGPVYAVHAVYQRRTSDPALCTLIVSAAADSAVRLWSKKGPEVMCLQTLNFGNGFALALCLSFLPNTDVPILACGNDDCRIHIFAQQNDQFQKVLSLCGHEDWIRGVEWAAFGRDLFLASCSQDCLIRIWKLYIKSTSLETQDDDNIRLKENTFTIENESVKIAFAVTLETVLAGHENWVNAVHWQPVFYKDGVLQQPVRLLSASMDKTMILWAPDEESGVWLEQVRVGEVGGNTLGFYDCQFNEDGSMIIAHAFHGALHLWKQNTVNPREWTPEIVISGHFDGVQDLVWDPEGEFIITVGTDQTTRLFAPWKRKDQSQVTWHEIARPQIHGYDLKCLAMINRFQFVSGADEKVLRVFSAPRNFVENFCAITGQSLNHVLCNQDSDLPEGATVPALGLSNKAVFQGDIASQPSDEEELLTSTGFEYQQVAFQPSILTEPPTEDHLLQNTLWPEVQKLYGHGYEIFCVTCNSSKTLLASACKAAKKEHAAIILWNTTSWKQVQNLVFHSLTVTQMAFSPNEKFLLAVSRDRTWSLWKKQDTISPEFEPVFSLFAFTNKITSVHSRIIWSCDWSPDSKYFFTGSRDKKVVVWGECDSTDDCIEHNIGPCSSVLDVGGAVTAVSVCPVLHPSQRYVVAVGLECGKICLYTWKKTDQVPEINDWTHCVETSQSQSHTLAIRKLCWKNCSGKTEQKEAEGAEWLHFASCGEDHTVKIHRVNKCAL
UniProt P07814: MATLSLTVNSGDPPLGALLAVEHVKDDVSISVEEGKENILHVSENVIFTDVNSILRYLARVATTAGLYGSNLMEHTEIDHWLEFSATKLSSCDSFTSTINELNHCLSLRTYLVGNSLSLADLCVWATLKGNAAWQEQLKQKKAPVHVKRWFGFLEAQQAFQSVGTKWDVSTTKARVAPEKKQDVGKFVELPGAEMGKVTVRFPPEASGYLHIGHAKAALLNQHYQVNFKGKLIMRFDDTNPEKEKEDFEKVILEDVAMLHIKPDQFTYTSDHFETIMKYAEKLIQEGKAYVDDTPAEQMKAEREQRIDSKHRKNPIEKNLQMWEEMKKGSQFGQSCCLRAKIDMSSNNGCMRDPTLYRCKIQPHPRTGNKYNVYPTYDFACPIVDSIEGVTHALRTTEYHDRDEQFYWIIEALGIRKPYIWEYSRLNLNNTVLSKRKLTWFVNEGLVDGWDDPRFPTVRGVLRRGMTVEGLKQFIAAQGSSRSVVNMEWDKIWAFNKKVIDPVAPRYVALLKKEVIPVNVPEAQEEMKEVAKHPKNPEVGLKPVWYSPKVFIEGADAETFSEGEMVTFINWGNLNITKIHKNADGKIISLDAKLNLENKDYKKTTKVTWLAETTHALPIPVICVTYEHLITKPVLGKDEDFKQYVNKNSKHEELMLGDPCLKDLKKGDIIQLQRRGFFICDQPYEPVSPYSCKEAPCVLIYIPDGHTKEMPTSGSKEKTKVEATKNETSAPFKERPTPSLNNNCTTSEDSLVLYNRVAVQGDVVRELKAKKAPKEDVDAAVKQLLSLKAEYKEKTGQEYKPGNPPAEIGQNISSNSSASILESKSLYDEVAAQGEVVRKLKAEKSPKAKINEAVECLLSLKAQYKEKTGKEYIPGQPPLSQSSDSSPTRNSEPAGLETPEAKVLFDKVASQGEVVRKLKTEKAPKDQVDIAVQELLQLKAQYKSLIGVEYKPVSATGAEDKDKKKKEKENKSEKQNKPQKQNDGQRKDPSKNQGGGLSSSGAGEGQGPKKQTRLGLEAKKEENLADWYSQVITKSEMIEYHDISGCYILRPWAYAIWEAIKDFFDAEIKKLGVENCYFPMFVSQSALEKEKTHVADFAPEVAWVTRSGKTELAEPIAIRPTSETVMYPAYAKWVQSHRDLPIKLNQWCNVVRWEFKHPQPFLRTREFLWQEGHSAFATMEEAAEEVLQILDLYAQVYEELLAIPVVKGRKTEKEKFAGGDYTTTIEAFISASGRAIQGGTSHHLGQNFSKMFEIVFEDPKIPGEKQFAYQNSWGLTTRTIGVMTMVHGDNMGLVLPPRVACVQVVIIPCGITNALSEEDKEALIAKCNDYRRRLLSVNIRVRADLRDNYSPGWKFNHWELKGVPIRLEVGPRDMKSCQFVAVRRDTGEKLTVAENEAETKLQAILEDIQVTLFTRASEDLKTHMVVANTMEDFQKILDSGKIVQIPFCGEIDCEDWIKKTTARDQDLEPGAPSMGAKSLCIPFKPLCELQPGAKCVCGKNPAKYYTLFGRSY
UniProt P08246: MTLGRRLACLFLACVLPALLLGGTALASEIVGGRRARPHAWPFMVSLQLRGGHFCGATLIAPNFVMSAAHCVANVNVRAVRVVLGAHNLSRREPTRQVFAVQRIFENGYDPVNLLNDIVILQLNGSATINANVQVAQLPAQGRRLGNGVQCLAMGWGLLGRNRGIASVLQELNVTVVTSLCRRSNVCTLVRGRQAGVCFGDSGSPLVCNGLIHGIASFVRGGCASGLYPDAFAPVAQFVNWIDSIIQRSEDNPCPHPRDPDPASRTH
UniProt O60841: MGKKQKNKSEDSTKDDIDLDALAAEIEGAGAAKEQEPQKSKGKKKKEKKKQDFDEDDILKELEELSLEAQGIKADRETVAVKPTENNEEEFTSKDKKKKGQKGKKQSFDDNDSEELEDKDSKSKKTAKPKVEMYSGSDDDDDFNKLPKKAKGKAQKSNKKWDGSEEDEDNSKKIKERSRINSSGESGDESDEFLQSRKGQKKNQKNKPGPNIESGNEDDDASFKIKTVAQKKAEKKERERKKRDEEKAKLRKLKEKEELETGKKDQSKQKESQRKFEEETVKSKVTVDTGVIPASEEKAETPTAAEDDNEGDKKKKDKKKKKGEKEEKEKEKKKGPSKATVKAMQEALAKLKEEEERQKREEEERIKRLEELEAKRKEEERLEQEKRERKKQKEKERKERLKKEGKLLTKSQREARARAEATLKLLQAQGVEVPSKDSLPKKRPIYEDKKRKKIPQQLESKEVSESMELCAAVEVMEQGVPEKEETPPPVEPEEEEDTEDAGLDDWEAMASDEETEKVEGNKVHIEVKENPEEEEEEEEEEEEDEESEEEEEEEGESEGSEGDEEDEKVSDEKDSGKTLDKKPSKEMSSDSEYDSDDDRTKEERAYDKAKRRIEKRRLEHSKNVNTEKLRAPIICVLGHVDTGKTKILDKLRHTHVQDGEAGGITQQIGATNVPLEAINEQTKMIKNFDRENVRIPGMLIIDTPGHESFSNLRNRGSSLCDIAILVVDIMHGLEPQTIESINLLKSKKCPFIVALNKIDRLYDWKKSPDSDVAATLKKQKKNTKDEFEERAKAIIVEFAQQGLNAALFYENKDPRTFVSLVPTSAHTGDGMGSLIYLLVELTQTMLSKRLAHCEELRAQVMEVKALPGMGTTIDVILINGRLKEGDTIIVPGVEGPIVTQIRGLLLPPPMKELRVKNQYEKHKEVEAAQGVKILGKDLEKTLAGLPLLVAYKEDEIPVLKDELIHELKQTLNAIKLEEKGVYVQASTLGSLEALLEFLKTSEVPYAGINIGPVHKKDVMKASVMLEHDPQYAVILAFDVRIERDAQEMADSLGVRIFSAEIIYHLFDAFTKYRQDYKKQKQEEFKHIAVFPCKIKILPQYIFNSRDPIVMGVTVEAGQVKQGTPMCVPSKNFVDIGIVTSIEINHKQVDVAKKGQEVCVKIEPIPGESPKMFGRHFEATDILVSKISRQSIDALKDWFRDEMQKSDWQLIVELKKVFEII
UniProt P60228, whole entry, looked up: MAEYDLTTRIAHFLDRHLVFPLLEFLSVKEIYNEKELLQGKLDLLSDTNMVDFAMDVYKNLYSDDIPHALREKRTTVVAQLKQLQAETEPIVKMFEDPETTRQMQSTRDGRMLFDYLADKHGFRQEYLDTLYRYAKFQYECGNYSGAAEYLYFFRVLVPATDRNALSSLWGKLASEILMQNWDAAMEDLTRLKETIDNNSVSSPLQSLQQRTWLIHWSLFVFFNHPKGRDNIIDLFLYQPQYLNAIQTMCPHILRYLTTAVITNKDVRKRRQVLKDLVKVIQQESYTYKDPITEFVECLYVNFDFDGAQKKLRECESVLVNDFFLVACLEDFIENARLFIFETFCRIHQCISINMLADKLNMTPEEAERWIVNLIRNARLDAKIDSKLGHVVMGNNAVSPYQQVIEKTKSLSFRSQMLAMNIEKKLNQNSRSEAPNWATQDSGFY
UniProt Q9BW60: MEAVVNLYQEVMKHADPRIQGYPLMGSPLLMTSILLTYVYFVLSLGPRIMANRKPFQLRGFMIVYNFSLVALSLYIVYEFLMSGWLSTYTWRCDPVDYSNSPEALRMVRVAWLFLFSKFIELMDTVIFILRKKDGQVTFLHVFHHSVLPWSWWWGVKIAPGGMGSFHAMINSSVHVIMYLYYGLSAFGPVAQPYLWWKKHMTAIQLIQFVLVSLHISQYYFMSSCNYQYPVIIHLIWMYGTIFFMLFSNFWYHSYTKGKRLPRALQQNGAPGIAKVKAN
UniProt Q04637, whole entry, looked up: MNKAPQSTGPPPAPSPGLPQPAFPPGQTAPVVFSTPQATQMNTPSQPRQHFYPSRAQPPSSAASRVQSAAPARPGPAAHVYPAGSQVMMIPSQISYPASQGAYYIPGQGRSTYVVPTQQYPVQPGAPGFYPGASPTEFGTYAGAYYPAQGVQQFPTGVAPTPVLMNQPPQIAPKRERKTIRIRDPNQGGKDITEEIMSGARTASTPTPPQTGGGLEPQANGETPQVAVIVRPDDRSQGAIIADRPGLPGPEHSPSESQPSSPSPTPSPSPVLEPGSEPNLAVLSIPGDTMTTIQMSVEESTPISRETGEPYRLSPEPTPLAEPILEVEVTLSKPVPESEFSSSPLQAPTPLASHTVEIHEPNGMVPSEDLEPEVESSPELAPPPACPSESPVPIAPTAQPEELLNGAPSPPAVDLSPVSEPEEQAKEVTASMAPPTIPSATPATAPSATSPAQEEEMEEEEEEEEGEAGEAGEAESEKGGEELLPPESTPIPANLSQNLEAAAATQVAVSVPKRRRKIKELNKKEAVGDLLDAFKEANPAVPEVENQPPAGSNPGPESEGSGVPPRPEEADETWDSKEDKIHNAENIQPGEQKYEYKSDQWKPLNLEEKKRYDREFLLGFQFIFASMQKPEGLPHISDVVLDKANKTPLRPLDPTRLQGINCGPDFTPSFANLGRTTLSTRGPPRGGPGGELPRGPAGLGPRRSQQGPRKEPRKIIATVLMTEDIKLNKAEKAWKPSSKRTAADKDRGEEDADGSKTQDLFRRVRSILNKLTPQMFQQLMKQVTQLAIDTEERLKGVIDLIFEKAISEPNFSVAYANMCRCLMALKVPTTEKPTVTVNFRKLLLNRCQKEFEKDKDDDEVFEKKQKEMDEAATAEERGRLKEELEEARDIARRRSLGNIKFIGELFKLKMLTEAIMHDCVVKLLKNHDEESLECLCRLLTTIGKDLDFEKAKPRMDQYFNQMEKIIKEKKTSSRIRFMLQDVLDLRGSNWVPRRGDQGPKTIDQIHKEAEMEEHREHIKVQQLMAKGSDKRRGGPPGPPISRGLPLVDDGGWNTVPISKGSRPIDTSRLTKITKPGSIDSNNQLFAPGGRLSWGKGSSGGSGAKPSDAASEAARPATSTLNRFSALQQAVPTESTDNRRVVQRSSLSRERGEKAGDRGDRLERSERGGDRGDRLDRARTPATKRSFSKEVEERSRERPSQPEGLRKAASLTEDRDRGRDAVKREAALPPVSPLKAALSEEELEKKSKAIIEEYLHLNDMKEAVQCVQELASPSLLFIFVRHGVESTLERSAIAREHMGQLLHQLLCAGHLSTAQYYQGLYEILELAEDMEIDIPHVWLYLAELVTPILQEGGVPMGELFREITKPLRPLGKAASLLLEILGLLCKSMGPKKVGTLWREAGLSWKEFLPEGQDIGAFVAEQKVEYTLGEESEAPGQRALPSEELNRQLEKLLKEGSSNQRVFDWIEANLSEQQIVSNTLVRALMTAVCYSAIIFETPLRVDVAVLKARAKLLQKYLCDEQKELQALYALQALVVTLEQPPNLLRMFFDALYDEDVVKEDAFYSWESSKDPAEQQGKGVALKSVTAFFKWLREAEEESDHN
UniProt P06730, whole entry: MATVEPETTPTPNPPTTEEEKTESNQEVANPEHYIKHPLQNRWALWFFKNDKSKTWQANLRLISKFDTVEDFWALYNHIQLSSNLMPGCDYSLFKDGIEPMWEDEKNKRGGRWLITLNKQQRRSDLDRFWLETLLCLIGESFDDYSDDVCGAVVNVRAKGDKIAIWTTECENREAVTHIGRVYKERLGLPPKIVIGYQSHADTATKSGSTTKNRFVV
UniProt Q15369, whole entry, looked up: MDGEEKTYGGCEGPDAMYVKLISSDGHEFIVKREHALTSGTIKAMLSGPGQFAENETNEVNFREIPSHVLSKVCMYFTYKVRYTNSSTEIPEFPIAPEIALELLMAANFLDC

Compound: CC1Cc2ccccc2N1C(=O)C1CCCN(C1)C(=O)CCl (mixture of isomers) [TRIM25 ligand 11 (diastereomer mixture)]
Assay: probe-labelled cysteine peptide fold change vs DMSO (competition) (log2 fold change); higher = less target engagement (more negative = stronger competition)
Conditions: THP-1, incubation time: 4 h
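Also: competitive chemoproteomic profiling in live THP-1 cells with an iodoacetamide desthiobiotin (IA-DTB) probe, comparing probe-labelled peptide intensities in compound-treated cells against DMSO-treated controls.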

Target	probe-labelled cysteine peptide fold change (10 µM)	probe-labelled cysteine peptide fold change (50 µM)
ELP2_Q6IA86_675_IIWSCDWSPDSK (UniProt Q6IA86)	-0.063	0.204
EPRS_P07814_1301+1309_VACVQVVIIPCGITNALSEEDK (UniProt P07814)	-0.162	-0.139
ELP1_O95163_414_QTVVPPPMCTYQLLFPHPVNQVTFLAHPQK (UniProt O95163)	-0.0615	-0.0736
EPRS_P07814_1301_VACVQVVIIPCGITNALSEEDK (UniProt P07814)	0.0163	-0.00686
EML4_Q9HC35_368_GVGCLDFSK (UniProt Q9HC35)	0.182	0.201
EPRS_P07814_105_LSSCDSFTSTINELNHCLSLR (UniProt P07814)	0.47	0.288
EP300_Q09472_388_SCQVAHCASSR (UniProt Q09472)	0.161	0.053
ELANE_P08246_254_SEDNPCPHPR (UniProt P08246)	-0.0328	-0.0765
ELP2_Q6IA86_38_GLLAFGTSCSVVLYDPLKR (UniProt Q6IA86)	-0.0266	0.023
EIF5B_O60841_1092_HIAVFPCK (UniProt O60841)	-0.0742	0.0436
ENGASE_Q8NFI3_113_LEDGFNVALEPLACR (UniProt Q8NFI3)	0.199	0.154
EIF3E_P60228_350_IHQCISINMLADK (UniProt P60228)	0.0357	0.0144
ELOVL5_Q9NYP7_61_NKQPFSCR (UniProt Q9NYP7)	-0.143	-0.0894
EPRS_P07814_660_HEELMLGDPCLK (UniProt P07814)	-0.0463	-0.186
EIF3B_P55884_527_NGDYLCVK (UniProt P55884)	-0.0279	0.102
EP300_Q09472_1250_RKNDTLDPELFVECTECGR (UniProt Q09472)	0.0384	0.148
EPRS_P07814_697_EAPCVLIYIPDGHTK (UniProt P07814)	-0.0281	-0.0379
EML3_Q32P44_615_FLTCGHDR (UniProt Q32P44)	-0.0229	-0.0267
ELOVL1_Q9BW60_93_CDPVDYSNSPEALR (UniProt Q9BW60)	0.0358	0.132
EIF3D_O15371_375_CEHDGVMTGANGEVSFINIK (UniProt O15371)	-0.0676	-0.178
EIF4G1_Q04637_662_LQGINCGPDFTPSFANLGR (UniProt Q04637)	-0.251	-0.298
EP300_Q09472_1272_MHQICVLHHEIIWPAGFVCDGCLK (UniProt Q09472)	0.0152	0.0262
EPS15L1_Q9UBC2_470_CQDETQMISSLK (UniProt Q9UBC2)	-0.0732	-0.171

Target	probe-labelled cysteine peptide fold change (10 µM)	probe-labelled cysteine peptide fold change (50 µM)
EIF5B_O60841_1158_KGQEVCVK (UniProt O60841)	0.00815	-0.0195
EIF5_P55010_99+102_FVLCPECENPETDLHVNPK (UniProt P55010)	-0.125	-0.0157
ELF2_Q15723_470_IITIPATQLAQCQLQTK (UniProt Q15723)	-0.0971	-0.199
EIF4E_P06730_170_IAIWTTECENR (UniProt P06730)	0.205	0.142
EPRS_P07814_744_ERPTPSLNNNCTTSEDSLVLYNR (UniProt P07814)	0.0165	-0.00714
EIF4A1_P60842_131+134_VVMALGDYMGASCHACIGGTNVR (UniProt P60842)	0.301	0.121
ELOF1_P60002_29_MTGTLETQFTCPFCNHEK (UniProt P60002)	-0.299	-0.257
ENOSF1_Q7L5Y1_330_ALQFLQIDSCR (UniProt Q7L5Y1)	-0.0652	0.0321
ELAC1_Q9H777_130_TMELSHTELVFHYVVHELVPTADQCPAEELK (UniProt Q9H777)	0.159	0.119
EIF3I_Q13347_57_LGTYMGHTGAVWCVDADWDTK (UniProt Q13347)	0.0312	-0.0132
ELOB_Q15370_60_TLGECGFTSQTAR (UniProt Q15370)	0.0672	-0.0666
ELAC2_Q9BQ52_670_VVYSGDTMPCEALVR (UniProt Q9BQ52)	0.0718	-0.0613
ELOC_Q15369_74_VCMYFTYK (UniProt Q15369)	0.00795	0.0702
EP300_Q09472_382_NVLNHMTHCQSGK (UniProt Q09472)	-0.0028	-0.126
EIF3M_Q7L2H7_52_GAEISEENSEGGLHVDLAQIIEACDVCLKEDDK (UniProt Q7L2H7)	0.0157	0.134
ERAL1_O75616_425_GHVISQIAQEAGHDLMDIFLCDVDIR (UniProt O75616)	-0.0363	-0.0198
EIF3K_Q9UBQ5_85_ALTNLPHTDFTLCK (UniProt Q9UBQ5)	0.0809	0.217
ELP5_Q8TE02_61_SALCGEQVHILGCEVSEEEFR (UniProt Q8TE02)	0.0192	0.276
EPRS_P07814_1076_LGVENCYFPMFVSQSALEK (UniProt P07814)	0.00656	-0.196
ELP2_Q6IA86_572+575_LYGHGYEIFCVTCNSSK (UniProt Q6IA86)	0.0985	0.132
ELP1_O95163_23_DIQGPGNPQCFSLR (UniProt O95163)	0.0812	0.0183
ELANE_P08246_254_SEDNPCPHPRDPDPASR (UniProt P08246)	-0.0641	-0.14

Two entries from above, as labelled records:
EIF4G1_Q04637_662_LQGINCGPDFTPSFANLGR (UniProt Q04637)
  probe-labelled cysteine peptide fold change (10 µM) = -0.251
  probe-labelled cysteine peptide fold change (50 µM) = -0.298
EIF3M_Q7L2H7_52_GAEISEENSEGGLHVDLAQIIEACDVCLKEDDK (UniProt Q7L2H7)
  probe-labelled cysteine peptide fold change (10 µM) = 0.0157
  probe-labelled cysteine peptide fold change (50 µM) = 0.134
